# Measurements reported in PubChem BioAssay AID504774 (Drosophila RNAi Screening Center, 2011)
# Purpose: 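Fly genes whose loss alters survival after alkylation damage to DNA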 (primary screen)
# Cell system: Drosophila Kc167 cells
# Reagents: long dsRNA against Drosophila genes, about 0.25 µg dsRNA per well
# Time to read-out: about 6 days: 3 days knock-down, then 3 days with or without MMS
# Treatment: methyl methanesulphonate 0.004% (w/v) for 3 days after knock-down
# Read-out: 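Viability in wells given MMS, read as ATP luminescence, normalised by quantiles plate by plate and averaged across replicates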
# Direction: mean viability with MMS: higher = more surviving cells after MMS
# The deposit covers about 23,000 reagents; this is an unselected part of those with a known target gene and a result. 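Values are quantile-normalised luminescence on an arbitrary scale; higher means more cells surviving MMS.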 Names joined by + are all predicted targets of the reagent. Not all columns of the deposit are shown.
gene,amplicon,mean viability with MMS
CG18870,DRSC04313,3.69e6
mip40,DRSC06541,3.73e6
CG11454,DRSC00310,3.31e6
Rdl,DRSC11264,3.54e6
SerRS,DRSC00496,3.44e6
CG10195,DRSC02026,3.59e6
CG11598,DRSC14331,3.48e6
CG2217 + CG42740,DRSC14141,3.53e6
Alg11,DRSC11647,3.49e6
CG33116,DRSC02045,3.56e6
CG7387,DRSC10833,3.46e6
Pal2,DRSC04507,3.66e6
CG16898,DRSC06635,3.49e6
Kank,DRSC05513,3.72e6
Kank,DRSC05933,3.26e6
mtg,DRSC16256,3.60e6
CG3587,DRSC18541,3.57e6
CG3587,DRSC21966,3.49e6
CG15219,DRSC03715,3.71e6
Cdc6,DRSC10563,3.54e6
ath,DRSC02788,3.62e6
QC,DRSC09736,3.82e6
mTor,DRSC02811,3.36e6
CadN,DRSC03286,3.53e6
Saf6,DRSC00633,3.54e6
Tgt,DRSC00672,3.48e6
CG14605,DRSC12549,3.56e6
5PtaseI,DRSC16269,3.33e6
5PtaseI,DRSC22090,3.62e6
CG4074,DRSC11752,3.69e6
dpr20,DRSC08265,3.65e6
nerfin-1,DRSC08729,3.47e6
Gr33a,DRSC02589,3.58e6
chm,DRSC03341,3.63e6
CG31199,DRSC15284,3.60e6
Ace,DRSC12959,3.64e6
Ace,DRSC14100,3.49e6
CG32488,DRSC08549,2.09e6
CG32488,DRSC21537,3.61e6
CG3014,DRSC15458,3.57e6
ArfGAP3,DRSC11794,3.66e6
CG33090,DRSC01908,3.46e6
PlexA,DRSC17220,3.46e6
CG14657,DRSC12219,3.45e6
CG14657,DRSC12243,3.39e6
Obp83ef,DRSC12268,3.45e6
cass,DRSC01850,3.16e6
ana1,DRSC16079,3.55e6
ana1,DRSC21825,3.49e6
CG30281,DRSC04528,3.76e6
Prosbeta2R1,DRSC18154,3.46e6
CG14082,DRSC10086,3.76e6
ash1,DRSC11325,3.51e6
Acp53C14b,DRSC06569,3.54e6
CG13965,DRSC02307,3.61e6
CR18217,DRSC21506,3.59e6
sNPF,DRSC02309,3.47e6
Nipped-A,DRSC04882,3.57e6
Nipped-A,DRSC04883,3.15e6
Nipped-A,DRSC04884,3.12e6
Nipped-A,DRSC07738,3.28e6
Nipped-A,DRSC22386,2.62e6
CheA84a,DRSC12669,3.54e6
CG11825,DRSC06090,3.57e6
CG30197,DRSC22394,3.44e6
CG32365,DRSC10040,3.49e6
CG32365,DRSC10041,2.88e6
CG32365,DRSC10977,2.92e6

Laid out differently: entries from further up.
{"gene": "CG2217 + CG42740", "amplicon": "DRSC14141", "mean viability with MMS": 3.53e6}
{"gene": "Alg11", "amplicon": "DRSC11647", "mean viability with MMS": 3.49e6}
{"gene": "CG33116", "amplicon": "DRSC02045", "mean viability with MMS": 3.56e6}
{"gene": "CG7387", "amplicon": "DRSC10833", "mean viability with MMS": 3.46e6}
{"gene": "Pal2", "amplicon": "DRSC04507", "mean viability with MMS": 3.66e6}
{"gene": "CG16898", "amplicon": "DRSC06635", "mean viability with MMS": 3.49e6}
{"gene": "Kank", "amplicon": "DRSC05513", "mean viability with MMS": 3.72e6}
{"gene": "Kank", "amplicon": "DRSC05933", "mean viability with MMS": 3.26e6}
